Data as given in doi:10.1101/2021.07.23.453513.
Results are given in words; binding and its absence hold for the method and conditions named. In cells and extracts the contact can be indirect. Some entries that bind do so weakly or less than the wild type.

Chains of the proteins cited; added tags and fusions are not shown.
UniProt Q9CQW9: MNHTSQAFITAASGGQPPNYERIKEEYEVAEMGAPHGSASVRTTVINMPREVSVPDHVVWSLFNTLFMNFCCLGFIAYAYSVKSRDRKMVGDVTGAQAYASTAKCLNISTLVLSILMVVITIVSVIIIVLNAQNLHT

Target: Interferon induced transmembrane protein 3 (Ifitm3) (mouse (endogenous in BM-DCs)) (UniProt Q9CQW9)
Assay: co-IP

B1: Nogo-B (reticulon 4 isoform) (protein, UniProt Q99P72-5 1-356)
chain: MEDIDQSSLVSSSADSPPRPPPAFKYQFVTEPEDEEDEEDEEEEEDDEDLEELEVLERKPAAGLSAAPVPPAAAPLLDFSSDSVPPAPRGPLPAAPPTAPERQPSWERSPAASAPSLPPAAAVLPSKLPEDDEPPARPPAPAGASPLAEPAAPPSTPAAPKRRGSGSVVVDLLYWRDIKKTGVVFGASLFLLLSLTVFSIVSVTAYIALALLSVTISFRIYKGVIQAIQKSDEGHPFRAYLESEVAISEELVQKYSNSALGHVNSTIKELRRLFLVDDLVDSLKFAVLMWVFTYVGALFNGLTLLILALISLFSIPVIYERHQAQIDHYLGLANKSVKDAMAKIQAKIPGLKRKAE
In the case of B1, the binding is reported as “binds”.
